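Malaria parasite (P. falciparum) lines kept in red blood cells; parasite DNA is measured by SYBR Green fluorescence after lysis, 72 h after compound addition. Each compound was titrated across a series from about 0.000037 to 29 µM. The number is the fitted AC50, the concentration giving a half-maximal change in signal; a lower value means higher potency, whether the curve shows a decrease or an increase. Calls follow the curve class and fit quality: every row here is inconclusive, covering signal-raising curves and weak, poorly fitted, partial or highest-dose-only inhibition curves.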

Values are in nM. Every entry below has the call inconclusive. Only part of the assay is shown, chiefly results filed as inconclusive. Potencies fitted to partial, single-point or poorly fitting curves are rough. The first word of each remark tells which way the curve ran; it can be opposite to the aim of the assay.

compound: C=C1C(=CC=C2CCC[C@@]3(C)[C@@H]2CC[C@H]3[C@H](C)CCCC(C)C)C[C@@H](O)C[C@@H]1O
setting: AS120
Potency (nM): 11220
remark: inhibitor, single point

compound: C=C1C(=CC=C2CCC[C@@]3(C)[C@@H]2CC[C@H]3[C@H](C)CCCC(C)C)C[C@@H](O)C[C@@H]1O
setting: P94_40
Potency (nM): 10000
remark: inhibitor, single point

compound: C=C1C(=CC=C2CCC[C@@]3(C)[C@@H]2CC[C@H]3[C@H](C)CCCC(C)C)C[C@@H](O)C[C@@H]1O
setting: CP252
Potency (nM): 10000
remark: inhibitor, single point

compound: C=C1C(=CC=C2CCC[C@@]3(C)[C@@H]2CC[C@H]3[C@H](C)CCCC(C)C)C[C@@H](O)C[C@@H]1O
setting: CP237
Potency (nM): 17782
remark: inhibitor, single point

compound: C=C1C(=CC=C2CCC[C@@]3(C)[C@@H]2CC[C@H]3[C@H](C)CCCC(C)C)C[C@@H](O)C[C@@H]1O
setting: CP217
Potency (nM): 11220
remark: inhibitor, single point

compound: C=C1C(=CC=C2CCC[C@@]3(C)[C@@H]2CC[C@H]3[C@H](C)CCCC(C)C)C[C@@H](O)C[C@@H]1O
setting: TAB109
Potency (nM): 17782
remark: inhibitor, single point

compound: C=C1C(=CC=C2CCC[C@@]3(C)[C@@H]2CC[C@H]3[C@H](C)CCCC(C)C)C[C@@H](O)C[C@@H]1O
setting: CP250
Potency (nM): 11220
remark: inhibitor, single point

compound: C=C1C(=CC=C2CCC[C@@]3(C)[C@@H]2CC[C@H]3[C@H](C)CCCC(C)C)C[C@@H](O)C[C@@H]1O
setting: TAB165
Potency (nM): 11220
remark: inhibitor, single point

compound: C=C1C(=CC=C2CCC[C@@]3(C)[C@@H]2CC[C@H]3[C@H](C)CCCC(C)C)C[C@@H](O)C[C@@H]1O
setting: ATS95
Potency (nM): 10000
remark: inhibitor, single point

compound: C=C1C(=CC=C2CCC[C@@]3(C)[C@@H]2CC[C@H]3[C@H](C)CCCC(C)C)C[C@@H](O)C[C@@H]1O
setting: DIV17
Potency (nM): 16944
remark: inhibitor, partial curve, poor fit

compound: N#C/C(=C1/SCC(c2ccccc2Cl)S1)n1ccnc1 (stereo not shown)
setting: P93_24
Potency (nM): 11220
remark: inhibitor, single point

compound: N#C/C(=C1/SCC(c2ccccc2Cl)S1)n1ccnc1 (stereo not shown)
setting: ATS95
Potency (nM): 17782
remark: inhibitor, single point

compound: N#C/C(=C1/SCC(c2ccccc2Cl)S1)n1ccnc1 (stereo not shown)
setting: N140
Potency (nM): 15848
remark: inhibitor, partial curve, poor fit

compound: N#C/C(=C1/SCC(c2ccccc2Cl)S1)n1ccnc1 (stereo not shown)
setting: ICS
Potency (nM): 17782
remark: inhibitor, single point

compound: N#C/C(=C1/SCC(c2ccccc2Cl)S1)n1ccnc1 (stereo not shown)
setting: CP297
Potency (nM): 9528
remark: inhibitor, partial curve

compound: N#C/C(=C1/SCC(c2ccccc2Cl)S1)n1ccnc1 (stereo not shown)
setting: PC26
Potency (nM): 13459
remark: inhibitor, single point

compound: N#C/C(=C1/SCC(c2ccccc2Cl)S1)n1ccnc1 (stereo not shown)
setting: ECU
Potency (nM): 11220
remark: inhibitor, single point

compound: N#C/C(=C1/SCC(c2ccccc2Cl)S1)n1ccnc1 (stereo not shown)
setting: SC27B
Potency (nM): 8912
remark: inhibitor, single point

compound: N#C/C(=C1/SCC(c2ccccc2Cl)S1)n1ccnc1 (stereo not shown)
setting: PAD
Potency (nM): 12589
remark: inhibitor, single point

compound: N#C/C(=C1/SCC(c2ccccc2Cl)S1)n1ccnc1 (stereo not shown)
setting: GB4
Potency (nM): 21331
remark: inhibitor, partial curve, poor fit

compound: N#C/C(=C1/SCC(c2ccccc2Cl)S1)n1ccnc1 (stereo not shown)
setting: CP215
Potency (nM): 19011
remark: inhibitor, single point

compound: N#C/C(=C1/SCC(c2ccccc2Cl)S1)n1ccnc1 (stereo not shown)
setting: DIV14
Potency (nM): 15101
remark: inhibitor, partial curve, poor fit

compound: N#C/C(=C1/SCC(c2ccccc2Cl)S1)n1ccnc1 (stereo not shown)
setting: CP266
Potency (nM): 4776
remark: activator, partial curve, poor fit

compound: N#C/C(=C1/SCC(c2ccccc2Cl)S1)n1ccnc1 (stereo not shown)
setting: AS120
Potency (nM): 10000
remark: inhibitor, single point

compound: CN1C[C@H](C(=O)N[C@]2(C)O[C@@]3(O)[C@@H]4CCCN4C(=O)[C@H](Cc4ccccc4)N3C2=O)C[C@@H]2c3cccc4[nH]cc(c34)C[C@H]21
setting: CP201
Potency (nM): 16944
remark: inhibitor, single point

The first 2 entries again:

compound	setting	Potency (nM)	remark
C=C1C(=CC=C2CCC[C@@]3(C)[C@@H]2CC[C@H]3[C@H](C)CCCC(C)C)C[C@@H](O)C[C@@H]1O	AS120	11220	inhibitor, single point
C=C1C(=CC=C2CCC[C@@]3(C)[C@@H]2CC[C@H]3[C@H](C)CCCC(C)C)C[C@@H](O)C[C@@H]1O	P94_40	10000	inhibitor, single point

Data taken from PubChem BioAssay AID504749, deposited by NCATS (2011).